Data reported in article PMC7372886.
Results are given in words; binding and its absence hold for the method and conditions named. Binding seen in cells or lysates may run through a third protein. A yes stands for co-enrichment or nearness to the bait. Other partners may have been found.

Sequences of proteins named here, by UniProt entry; tags and fusion partners are left off. A change or cut given only in a name is not applied to a line headed by its entry.
UniProt P49327: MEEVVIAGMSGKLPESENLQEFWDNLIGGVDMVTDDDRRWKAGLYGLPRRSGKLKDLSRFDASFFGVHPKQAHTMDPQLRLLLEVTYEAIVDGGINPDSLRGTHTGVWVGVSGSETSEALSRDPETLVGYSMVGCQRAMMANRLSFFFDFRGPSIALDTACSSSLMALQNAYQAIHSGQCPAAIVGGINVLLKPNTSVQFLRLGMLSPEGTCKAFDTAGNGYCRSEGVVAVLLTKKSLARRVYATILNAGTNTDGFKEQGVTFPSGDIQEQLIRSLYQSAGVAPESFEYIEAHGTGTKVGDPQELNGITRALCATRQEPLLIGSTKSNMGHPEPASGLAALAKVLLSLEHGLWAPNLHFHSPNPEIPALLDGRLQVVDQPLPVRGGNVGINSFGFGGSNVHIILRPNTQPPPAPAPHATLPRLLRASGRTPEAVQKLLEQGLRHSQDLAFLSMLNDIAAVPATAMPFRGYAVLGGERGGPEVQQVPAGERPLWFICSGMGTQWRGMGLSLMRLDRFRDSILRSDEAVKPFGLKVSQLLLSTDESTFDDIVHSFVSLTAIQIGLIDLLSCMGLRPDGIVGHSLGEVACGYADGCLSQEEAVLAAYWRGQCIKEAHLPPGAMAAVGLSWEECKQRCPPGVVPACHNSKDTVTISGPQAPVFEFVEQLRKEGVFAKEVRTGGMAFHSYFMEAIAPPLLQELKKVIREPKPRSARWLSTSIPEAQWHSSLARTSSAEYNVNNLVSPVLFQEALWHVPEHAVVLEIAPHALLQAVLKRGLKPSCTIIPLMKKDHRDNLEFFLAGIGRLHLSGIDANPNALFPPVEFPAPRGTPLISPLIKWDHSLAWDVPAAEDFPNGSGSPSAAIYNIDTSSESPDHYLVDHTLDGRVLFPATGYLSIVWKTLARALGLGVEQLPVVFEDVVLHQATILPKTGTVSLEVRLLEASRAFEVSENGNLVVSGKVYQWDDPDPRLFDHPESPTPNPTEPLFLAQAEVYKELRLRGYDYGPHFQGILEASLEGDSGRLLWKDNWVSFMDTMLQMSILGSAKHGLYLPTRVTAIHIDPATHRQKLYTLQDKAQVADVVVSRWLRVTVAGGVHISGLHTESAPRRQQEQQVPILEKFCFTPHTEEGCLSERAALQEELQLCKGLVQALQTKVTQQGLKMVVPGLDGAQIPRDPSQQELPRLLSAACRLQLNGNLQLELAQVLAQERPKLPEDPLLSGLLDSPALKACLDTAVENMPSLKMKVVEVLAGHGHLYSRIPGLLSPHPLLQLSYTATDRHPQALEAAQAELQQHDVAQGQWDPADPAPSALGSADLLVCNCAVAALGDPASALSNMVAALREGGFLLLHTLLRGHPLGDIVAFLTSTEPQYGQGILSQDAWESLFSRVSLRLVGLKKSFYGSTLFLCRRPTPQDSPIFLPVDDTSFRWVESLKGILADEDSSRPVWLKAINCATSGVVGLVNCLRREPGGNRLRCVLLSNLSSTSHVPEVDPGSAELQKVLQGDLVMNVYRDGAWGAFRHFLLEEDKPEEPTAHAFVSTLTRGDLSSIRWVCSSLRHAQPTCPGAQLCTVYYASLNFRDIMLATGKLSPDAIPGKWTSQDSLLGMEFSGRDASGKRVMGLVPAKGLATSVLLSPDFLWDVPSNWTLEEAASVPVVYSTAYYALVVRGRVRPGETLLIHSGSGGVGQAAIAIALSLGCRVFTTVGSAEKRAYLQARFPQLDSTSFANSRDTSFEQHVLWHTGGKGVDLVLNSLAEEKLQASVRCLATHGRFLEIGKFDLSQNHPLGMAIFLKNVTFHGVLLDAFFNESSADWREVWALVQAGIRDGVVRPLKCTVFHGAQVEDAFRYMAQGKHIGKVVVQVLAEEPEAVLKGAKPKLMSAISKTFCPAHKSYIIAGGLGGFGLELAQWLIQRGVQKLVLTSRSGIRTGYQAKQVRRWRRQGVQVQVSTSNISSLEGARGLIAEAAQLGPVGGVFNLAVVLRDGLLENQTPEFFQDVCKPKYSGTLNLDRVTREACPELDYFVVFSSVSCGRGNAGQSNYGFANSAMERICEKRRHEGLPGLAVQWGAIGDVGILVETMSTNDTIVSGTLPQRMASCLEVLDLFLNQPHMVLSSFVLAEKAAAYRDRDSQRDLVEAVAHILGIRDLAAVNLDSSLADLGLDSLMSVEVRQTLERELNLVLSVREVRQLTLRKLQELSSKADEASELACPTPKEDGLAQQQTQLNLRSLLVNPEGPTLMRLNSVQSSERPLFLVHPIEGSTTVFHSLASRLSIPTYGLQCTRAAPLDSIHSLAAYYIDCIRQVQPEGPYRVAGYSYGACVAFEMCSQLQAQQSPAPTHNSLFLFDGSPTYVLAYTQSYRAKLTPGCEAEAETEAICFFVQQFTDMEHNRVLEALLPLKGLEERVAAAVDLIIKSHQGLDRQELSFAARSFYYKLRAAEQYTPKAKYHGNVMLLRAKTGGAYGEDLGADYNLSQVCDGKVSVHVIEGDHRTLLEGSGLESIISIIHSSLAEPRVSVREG
UniProt Q92609: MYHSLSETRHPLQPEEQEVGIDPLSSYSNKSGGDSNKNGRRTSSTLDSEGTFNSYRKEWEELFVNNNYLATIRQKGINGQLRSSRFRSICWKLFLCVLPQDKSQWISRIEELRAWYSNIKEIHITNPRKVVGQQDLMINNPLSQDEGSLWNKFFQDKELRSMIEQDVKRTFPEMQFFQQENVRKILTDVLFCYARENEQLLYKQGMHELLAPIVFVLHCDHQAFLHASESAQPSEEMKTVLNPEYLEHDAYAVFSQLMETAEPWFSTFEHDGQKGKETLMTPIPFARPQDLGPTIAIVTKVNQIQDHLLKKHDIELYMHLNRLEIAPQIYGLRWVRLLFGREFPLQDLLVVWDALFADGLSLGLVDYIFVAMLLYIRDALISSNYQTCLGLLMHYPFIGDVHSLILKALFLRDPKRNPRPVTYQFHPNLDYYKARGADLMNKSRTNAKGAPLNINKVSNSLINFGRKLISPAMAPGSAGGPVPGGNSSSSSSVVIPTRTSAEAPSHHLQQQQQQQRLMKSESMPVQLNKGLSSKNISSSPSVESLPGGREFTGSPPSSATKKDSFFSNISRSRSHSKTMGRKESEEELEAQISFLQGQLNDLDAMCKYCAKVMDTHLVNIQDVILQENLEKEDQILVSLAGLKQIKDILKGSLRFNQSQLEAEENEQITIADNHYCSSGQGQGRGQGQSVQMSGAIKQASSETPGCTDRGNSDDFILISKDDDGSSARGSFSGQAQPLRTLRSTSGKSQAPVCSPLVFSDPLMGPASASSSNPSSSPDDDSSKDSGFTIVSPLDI
UniProt P04264: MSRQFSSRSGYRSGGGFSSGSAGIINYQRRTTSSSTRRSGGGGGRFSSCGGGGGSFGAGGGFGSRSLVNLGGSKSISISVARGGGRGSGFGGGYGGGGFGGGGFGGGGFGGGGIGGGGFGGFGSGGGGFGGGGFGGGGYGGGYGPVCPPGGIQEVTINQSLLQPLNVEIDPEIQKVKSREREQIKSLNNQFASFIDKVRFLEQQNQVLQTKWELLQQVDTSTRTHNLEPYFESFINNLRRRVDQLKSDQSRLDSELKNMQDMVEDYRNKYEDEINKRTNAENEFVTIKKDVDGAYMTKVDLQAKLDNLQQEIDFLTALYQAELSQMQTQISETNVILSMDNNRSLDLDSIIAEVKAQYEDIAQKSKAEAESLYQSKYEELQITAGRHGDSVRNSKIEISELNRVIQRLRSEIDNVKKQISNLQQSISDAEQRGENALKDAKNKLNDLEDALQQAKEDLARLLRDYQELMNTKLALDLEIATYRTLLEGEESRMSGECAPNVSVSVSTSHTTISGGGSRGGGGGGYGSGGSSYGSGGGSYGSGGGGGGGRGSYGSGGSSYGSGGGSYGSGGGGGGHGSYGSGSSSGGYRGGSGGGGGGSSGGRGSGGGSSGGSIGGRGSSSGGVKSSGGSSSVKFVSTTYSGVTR
UniProt Q16643: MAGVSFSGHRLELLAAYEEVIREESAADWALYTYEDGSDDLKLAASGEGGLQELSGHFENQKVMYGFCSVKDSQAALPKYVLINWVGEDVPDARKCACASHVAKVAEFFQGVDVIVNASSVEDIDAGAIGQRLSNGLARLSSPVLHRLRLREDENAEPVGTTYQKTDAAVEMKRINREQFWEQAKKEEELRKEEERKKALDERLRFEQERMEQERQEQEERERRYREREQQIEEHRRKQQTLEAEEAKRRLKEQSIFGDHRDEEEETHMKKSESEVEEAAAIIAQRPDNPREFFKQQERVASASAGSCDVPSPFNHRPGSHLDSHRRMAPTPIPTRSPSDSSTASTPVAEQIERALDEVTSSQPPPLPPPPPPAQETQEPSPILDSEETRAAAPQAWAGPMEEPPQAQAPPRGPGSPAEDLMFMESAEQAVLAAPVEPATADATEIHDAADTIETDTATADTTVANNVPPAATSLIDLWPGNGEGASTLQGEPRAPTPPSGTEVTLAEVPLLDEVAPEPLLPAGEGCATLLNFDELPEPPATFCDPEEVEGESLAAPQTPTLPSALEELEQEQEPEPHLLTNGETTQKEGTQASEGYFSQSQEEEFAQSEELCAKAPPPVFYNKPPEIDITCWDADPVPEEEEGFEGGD
UniProt Q562M3: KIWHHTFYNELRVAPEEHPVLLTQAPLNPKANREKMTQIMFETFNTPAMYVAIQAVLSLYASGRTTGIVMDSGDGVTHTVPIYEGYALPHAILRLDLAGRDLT
UniProt Q9BY89: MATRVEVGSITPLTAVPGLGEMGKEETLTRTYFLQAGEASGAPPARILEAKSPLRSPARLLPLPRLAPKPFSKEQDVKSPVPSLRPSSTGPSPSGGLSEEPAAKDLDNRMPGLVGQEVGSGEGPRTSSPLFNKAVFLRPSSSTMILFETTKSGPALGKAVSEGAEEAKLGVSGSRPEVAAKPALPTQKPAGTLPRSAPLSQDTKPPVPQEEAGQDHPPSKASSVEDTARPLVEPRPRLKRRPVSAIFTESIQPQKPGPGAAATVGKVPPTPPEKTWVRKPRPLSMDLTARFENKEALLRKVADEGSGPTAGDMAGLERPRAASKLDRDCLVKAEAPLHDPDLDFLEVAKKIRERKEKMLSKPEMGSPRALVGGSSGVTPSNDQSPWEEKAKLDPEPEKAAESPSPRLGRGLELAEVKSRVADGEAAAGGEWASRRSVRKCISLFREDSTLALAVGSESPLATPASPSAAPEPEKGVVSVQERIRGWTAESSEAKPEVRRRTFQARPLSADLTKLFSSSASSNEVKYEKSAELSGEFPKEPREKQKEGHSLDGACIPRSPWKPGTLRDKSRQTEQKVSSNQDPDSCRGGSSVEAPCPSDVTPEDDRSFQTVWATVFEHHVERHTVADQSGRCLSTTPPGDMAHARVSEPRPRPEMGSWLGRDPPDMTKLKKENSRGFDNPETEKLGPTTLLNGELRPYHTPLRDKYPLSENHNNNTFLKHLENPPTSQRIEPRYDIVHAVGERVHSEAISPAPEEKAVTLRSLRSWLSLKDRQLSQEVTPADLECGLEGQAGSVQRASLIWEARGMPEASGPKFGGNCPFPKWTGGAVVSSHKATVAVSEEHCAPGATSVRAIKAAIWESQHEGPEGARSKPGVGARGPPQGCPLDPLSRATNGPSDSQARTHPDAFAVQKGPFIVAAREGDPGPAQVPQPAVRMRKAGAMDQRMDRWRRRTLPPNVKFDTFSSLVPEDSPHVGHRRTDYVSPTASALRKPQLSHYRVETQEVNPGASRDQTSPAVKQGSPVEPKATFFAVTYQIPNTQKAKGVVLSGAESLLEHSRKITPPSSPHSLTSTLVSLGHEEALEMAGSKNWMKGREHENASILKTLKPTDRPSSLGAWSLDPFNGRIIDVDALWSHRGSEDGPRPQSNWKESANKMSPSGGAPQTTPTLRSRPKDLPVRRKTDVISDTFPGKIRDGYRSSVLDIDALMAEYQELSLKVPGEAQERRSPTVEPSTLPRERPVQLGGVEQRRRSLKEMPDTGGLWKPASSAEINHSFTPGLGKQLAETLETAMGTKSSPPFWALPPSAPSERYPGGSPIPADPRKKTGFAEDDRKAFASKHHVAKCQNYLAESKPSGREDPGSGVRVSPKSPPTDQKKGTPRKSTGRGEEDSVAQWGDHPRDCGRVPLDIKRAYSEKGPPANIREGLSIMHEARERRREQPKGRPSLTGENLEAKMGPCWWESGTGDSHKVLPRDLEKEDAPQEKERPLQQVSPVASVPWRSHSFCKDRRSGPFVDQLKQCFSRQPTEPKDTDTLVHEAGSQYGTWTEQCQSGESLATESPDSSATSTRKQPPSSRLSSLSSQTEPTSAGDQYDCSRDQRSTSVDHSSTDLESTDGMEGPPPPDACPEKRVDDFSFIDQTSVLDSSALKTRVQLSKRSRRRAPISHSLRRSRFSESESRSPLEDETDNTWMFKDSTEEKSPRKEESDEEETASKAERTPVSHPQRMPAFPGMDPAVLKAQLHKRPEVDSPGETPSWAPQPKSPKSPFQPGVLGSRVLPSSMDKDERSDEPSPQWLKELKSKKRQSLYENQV

target: Fatty acid synthase (human (endogenous in HepG2 and SMMC7721)) (UniProt P49327); experiment: affinity purification with mass spectrometry; FASN antibody and Protein A/G agarose beads on whole cell lysates of HepG2 cells transfected with control siRNA or FASN siRNA; eluted proteins iTRAQ-labelled (114, 117 against 118, 121), Nano LC ESI MS/MS

binding, binds:
TBC1 domain family, member 5, isoform CRA_b (from UniProt Q92609 1-795)
Unconventional myosin-Vc (from UniProt Q9NQX4 1-1742)
DERP12 (Dermal papilla derived protein 12) (from UniProt Q8TE01)
Actin-binding LIM protein 1 (from UniProt O14639 1-778)
PRKC apoptosis WT1 regulator protein (from UniProt Q96IZ0 1-340)
Myosin-14 (from UniProt Q7Z406 1-1995)
Tropomyosin alpha-4 chain (Fragment) (from UniProt P67936 1-248)
Protein-L-isoaspartate O-methyltransferase domain-containing protein 1 (from UniProt Q96MG8 1-357)
Laminin subunit alpha-5 (from UniProt O15230 36-3695)
Supervillin (from UniProt O95425 1-2214)
Guanine nucleotide-binding protein G(i) subunit alpha-2 (from UniProt P04899 1-355)
Beta-actin-like protein 2 (from UniProt Q562R1 1-376)
Formin-like protein 1 (from UniProt O95466 1-1100)
Unconventional myosin-Ib (from UniProt O43795 1-1136)
Tropomyosin beta chain (from UniProt P07951 1-284)
E3 ubiquitin-protein ligase TRIM21 (from UniProt P19474 1-475)
Keratin 1 (from UniProt P04264 1-644)
Guanine nucleotide-binding protein G(I)/G(S)/G(T) subunit beta-2 (from UniProt P62879 1-340)
Spectrin beta chain, non-erythrocytic 1 (from UniProt Q01082 1-2364)
Spectrin alpha chain, non-erythrocytic 1 (from UniProt Q13813 1-2472)
Dedicator of cytokinesis protein 7 (from UniProt Q96N67 1-2140)
Keratin, type II cytoskeletal 2 epidermal (from UniProt P35908 1-639)
Taperin (from UniProt Q4KMQ1 1-711)
Spectrin beta chain, non-erythrocytic 2 (from UniProt O15020 1-2390)
Twinfilin-1 (from UniProt Q12792 1-350)
Alpha-actinin-4 (from UniProt O43707 1-911)
Myosin-10 (from UniProt P35580 1-1976)
Plastin-1 (from UniProt Q14651 1-629)
Myosin-9 (from UniProt P35579 1-1960)
Drebrin (from UniProt Q16643 1-649)
Tight junction protein ZO-1 (from UniProt Q07157 1-1748)
Formin-like protein 2 (from UniProt Q96PY5 1-1086)
Tropomyosin alpha-1 chain (from UniProt P09493 1-284)
Neurabin-2 (from UniProt Q96SB3 1-817)
CD109 antigen (from UniProt Q6YHK3 22-1420)
Actin-like protein (Fragment) (from UniProt Q562M3)
Keratin, type I cytoskeletal 10 (from UniProt P13645 1-584)
Uncharacterized protein KIAA1671 (from UniProt Q9BY89 1-1806)
Alpha-actinin-1 (from UniProt P12814 1-892)
Alkaline phosphatase, placental type (from UniProt P05187 23-506)
Guanine nucleotide-binding protein G(k) subunit alpha (from UniProt P08754 1-354)
Desmoglein-2 (from UniProt Q14126 50-1118)
